Taken from: PubChem BioAssay AID504808 (Drosophila RNAi Screening Center, 2011)
Assay: 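Fly genes required to hold E2F transcription in check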 (primary screen). System: Drosophila S2 cells. Reagent: long dsRNA against Drosophila genes. Measured: 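Dual luciferase plate measurements; E2F-specific signal taken as firefly over Renilla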. Reading the numbers: E2F firefly: higher = more E2F reporter activity; Renilla normaliser: higher = more normaliser reporter signal. Hit rule: 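Called active if the normalised E2F reporter went up by over 50%; the cutoff is arbitrary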.
The deposit covers about 21,000 reagents; this is a random part of those with a known target gene and a result. In the full data, 18 (0.084%) are marked active. 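Raw counts without plate normalisation, one of two replicates; the ratio scores behind the calls were not deposited.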 Unmarked entries are inactive. A plus sign joins genes that one reagent is predicted to hit. Reagent sequences are not shown. Not stated in the record: the amount of reagent, the time to read-out.

predicted target | amplicon | E2F firefly, rep 1 | Renilla normaliser, rep 1
CG7294 | DRSC03041 | 1.34e5 | 4609
CG42354 + CG42353 | DRSC20172 | 6796 | 832
Xrcc2 | DRSC19984 | 2.32e5 | 5616
Slc25A46b | DRSC02888 | 1.04e5 | 4232
Shmt | DRSC18264 | 1.11e5 | 5714
Snm1 | DRSC12130 | 69099 | 4113
CG5555 | DRSC15834 | 81971 | 6232
CG5800 | DRSC19962 | 1.46e5 | 7002
CG3939 | DRSC18498 | 1.30e5 | 7144
SerT | DRSC04655 | 1.12e5 | 4312
Osi7 | DRSC12176 | 1.38e5 | 6505
PIG-U | DRSC02193 | 75455 | 3474
CG8252 | DRSC07126 | 2808 | 214

Targets above whose target name starts with C or c (6):
predicted target | amplicon | E2F firefly, rep 1 | Renilla normaliser, rep 1
CG7294 | DRSC03041 | 1.34e5 | 4609
CG42354 + CG42353 | DRSC20172 | 6796 | 832
CG5555 | DRSC15834 | 81971 | 6232
CG5800 | DRSC19962 | 1.46e5 | 7002
CG3939 | DRSC18498 | 1.30e5 | 7144
CG8252 | DRSC07126 | 2808 | 214

Next reagents follow.
predicted target | amplicon | E2F firefly, rep 1 | Renilla normaliser, rep 1
Sec23 | DRSC12387 | 64679 | 3655
Inx7 | DRSC18784 | 1.04e5 | 5020
CG15336 | DRSC18019 | 1.22e5 | 5363
Cyp4d8 | DRSC11131 | 68673 | 3588
CG30154 | DRSC05889 | 1.79e5 | 5802
CG42337 | DRSC11686 | 1.16e5 | 6076
CG42337 | DRSC11687 | 83241 | 5357
Prosbeta4R2 | DRSC00503 | 87725 | 3348
GIIIspla2 | DRSC18094 | 7652 | 692
Hs6st | DRSC14348 | 1.34e5 | 7400
Hs6st | DRSC15182 | 1.41e5 | 7410
Hs6st | DRSC15581 | 1.34e5 | 6547
Ssk | DRSC10756 | 73936 | 3619
Ir8a | DRSC17817 | 1.35e5 | 5654
Ir8a | DRSC17869 | 1.20e5 | 5505
slif | DRSC11635 | 69860 | 3371
Srrm1 | DRSC09835 | 1.18e5 | 7528
CG32793 | DRSC18145 | 1.19e5 | 6031
CG32793 | DRSC18194 | 1.09e5 | 6166
rsh | DRSC18966 | 89635 | 2815
rsh | DRSC19816 | 61936 | 3911
